Source: PubChem BioAssay AID602196 (INSERM, 2012)

- Purpose: 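Genes whose knock-down alters cisplatin killing of lung cancer cells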
- Cell system: human A549 lung cancer cells
- Reagent: siRNA pair against human genes
- Duration: 48 h transfection before cisplatin; time from cisplatin to read-out not stated
- Challenge: cisplatin at a dose killing half of control-siRNA cells; exact dose and duration not given
- Measurement: 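Shift in cisplatin death relative to control siRNA, from -50 (all cells die) to +50 (no cells die); siRNAs harmful on their own scored 0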
- Scale: two-siRNA summed score (-2 to +2): higher = both siRNAs protect from cisplatin killing; -2 means both sensitise; mean protection from cisplatin (shift in death): higher = protection from cisplatin killing
- Active means: 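siRNAs harmful alone (LDH or WST-1) get 0; others get +1 for less and -1 for more cisplatin killing; genes are active when the two siRNAs give the same sign, summing to ±2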
- Calls: active = both siRNAs shift cisplatin killing the same way; inactive = no consistent shift, or siRNA harmful alone
Here is an unselected part of about 23,000 reagents. Over the whole deposit, 455 (2%) are marked active. 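Active includes both protection and sensitisation; some change values fall well beyond the stated -50 to +50 range.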 Not all columns of the deposit are shown. No sequences are given here. Not stated in the record: the amount of reagent.

Knock-down of KNCN came out at: two-siRNA summed score (-2 to +2) = 0; mean protection from cisplatin (shift in death) (%) = -0.6; inactive.
After knock-down of LOC441033, the screen gave two-siRNA summed score (-2 to +2) = 0; mean protection from cisplatin (shift in death) (%) = 20.5; inactive.
With knock-down of TIMM17BP1, the screen gave two-siRNA summed score (-2 to +2) = 0; mean protection from cisplatin (shift in death) (%) = -0.7; inactive.
After knock-down of CYBRD1, the screen gave two-siRNA summed score (-2 to +2) = 0; mean protection from cisplatin (shift in death) (%) = 1.9; inactive.
With knock-down of FBXW8, the screen gave two-siRNA summed score (-2 to +2) = 0; mean protection from cisplatin (shift in death) (%) = -23.7; inactive.
FAM13B scored two-siRNA summed score (-2 to +2) = 0; mean protection from cisplatin (shift in death) (%) = 3; inactive.
Against SERPINB13, the values are two-siRNA summed score (-2 to +2) = 0; mean protection from cisplatin (shift in death) (%) = 22.7; inactive.
GLOD4 gave two-siRNA summed score (-2 to +2) = 0; mean protection from cisplatin (shift in death) (%) = -1.4; inactive.
Depletion of HPS5 came out at: two-siRNA summed score (-2 to +2) = 0; mean protection from cisplatin (shift in death) (%) = -3; inactive.
Knock-down of TMCO5A gave: two-siRNA summed score (-2 to +2) = 1; mean protection from cisplatin (shift in death) (%) = 12.8; inactive.
Against C1orf56 the deposit lists two-siRNA summed score (-2 to +2) = 0; mean protection from cisplatin (shift in death) (%) = 11.8; inactive.
Knock-down of LOC388458 came out at: two-siRNA summed score (-2 to +2) = 1; mean protection from cisplatin (shift in death) (%) = 6.2; inactive.
Silencing of LOC440815 resulted in: two-siRNA summed score (-2 to +2) = 1; mean protection from cisplatin (shift in death) (%) = 12.4; inactive.
LOC441745 scored two-siRNA summed score (-2 to +2) = 0; mean protection from cisplatin (shift in death) (%) = 3.7; inactive.
TEX55 gave two-siRNA summed score (-2 to +2) = 0; mean protection from cisplatin (shift in death) (%) = -5.2; inactive.
After knock-down of LOC442126, the screen gave two-siRNA summed score (-2 to +2) = 2; mean protection from cisplatin (shift in death) (%) = 24.8; active.
Depletion of CLEC4F gave: two-siRNA summed score (-2 to +2) = 0; mean protection from cisplatin (shift in death) (%) = 10.6; inactive.
Depletion of BRPF3 came out at: two-siRNA summed score (-2 to +2) = -2; mean protection from cisplatin (shift in death) (%) = -29.3; active.
Knock-down of NRG4 resulted in: two-siRNA summed score (-2 to +2) = 0; mean protection from cisplatin (shift in death) (%) = -0.9; inactive.
For RBMX2 the deposit lists two-siRNA summed score (-2 to +2) = 0; mean protection from cisplatin (shift in death) (%) = 15.4; inactive.
HEATR5B showed two-siRNA summed score (-2 to +2) = 0; mean protection from cisplatin (shift in death) (%) = 6.4; inactive.
With knock-down of NAA40, the screen gave two-siRNA summed score (-2 to +2) = 0; mean protection from cisplatin (shift in death) (%) = 7.4; inactive.
Silencing of SMIM14 came out at: two-siRNA summed score (-2 to +2) = 0; mean protection from cisplatin (shift in death) (%) = 1.7; inactive.
With knock-down of LOC151507, the record shows two-siRNA summed score (-2 to +2) = 0; mean protection from cisplatin (shift in death) (%) = 8.1; inactive.
After knock-down of LOC399867, the record shows two-siRNA summed score (-2 to +2) = 0; mean protection from cisplatin (shift in death) (%) = 5.7; inactive.
LOC387712 scored two-siRNA summed score (-2 to +2) = 1; mean protection from cisplatin (shift in death) (%) = 8; inactive.
For LOC441020, the entry reads two-siRNA summed score (-2 to +2) = 1; mean protection from cisplatin (shift in death) (%) = 6.9; inactive.
For CAB39 the deposit lists two-siRNA summed score (-2 to +2) = 0; mean protection from cisplatin (shift in death) (%) = -0.5; inactive.
C1QTNF1 gave two-siRNA summed score (-2 to +2) = 0; mean protection from cisplatin (shift in death) (%) = -3.6; inactive.
Depletion of TCEAL1 came out at: two-siRNA summed score (-2 to +2) = 0; mean protection from cisplatin (shift in death) (%) = 6.6; inactive.
After knock-down of OR5B3, the record shows two-siRNA summed score (-2 to +2) = 0; mean protection from cisplatin (shift in death) (%) = 0.1; inactive.

Ordered by “two-siRNA summed score (-2 to +2)” (ascending): 2 of the entries above.
BRPF3 | two-siRNA summed score (-2 to +2) = -2; mean protection from cisplatin (shift in death) (%) = -29.3; activity call = active
NRG4 | two-siRNA summed score (-2 to +2) = 0; mean protection from cisplatin (shift in death) (%) = -0.9; activity call = inactive
